Measured values as given in patent US11471504B2, “Combination therapy for the treatment of cancer” (Yeda Research and Development Co. Ltd., priority 2017, dated 2022).
At least one compound was matched to its structure with a doubt left.

How the values were obtained:
[1] = system: 63T NRAS mutant melanoma cells; details: 1 μM, 72 h
[2] = system: 39T NF1 mutant melanoma cells; test: Cell viability assay (CellTiter-Glo), 39T; assay type: cell-based, human; details: 1 μM, 72 h
[3] = system: 110T NRAS mutant melanoma cells; test: Cell viability assay (CellTiter-Glo), 110T; assay type: cell-based, human; details: 1 μM, 72 h
Description: (§1) (B) Effect of BRAF inhibitor vemurafenib on selected melanomas. […] All melanoma cells selected were resistant to BRAF inhibition.
(§2) Dots represent triplicates for every concentration point. […] Viable cells were quantified using CellTiter-Glo reagent. […] Quantified levels are given under the blots. ImageJ was used for the quantification.
(§3) All cell lines have tested negative for mycoplasma.
(§4) IC50 values were determined using GraphPad Prism.

BRAF mutant melanoma = details: cited from earlier work
[4] = system: 83T NRAS mutant melanoma cells; test: Cell viability assay (CellTiter-Glo), 83T; assay type: cell-based, human; details: 1 μM, 72 h
Description: as §1, §2, §3, §4

[5] = system: 60T NRAS mutant melanoma cells; details: 1 μM, 72 h
[6] = system: 120T NRAS mutant melanoma cells; test: Cell viability assay (CellTiter-Glo), 120T; assay type: cell-based, human; details: 1 μM, 72 h
melanoma cell lines = test: Cell viability assay (CellTiter-Glo), panel of melanoma cell lines; assay type: cell-based, human; details: trametinib alone
ERK cascade signaling = details: 83T; trametinib at very low concentrations, alone or with EPE 10 μM

| Structure (SMILES) | response of cell viability to BRAF inhibition [1] | response of cell viability to BRAF inhibition [2] | response of cell viability to BRAF inhibition [3] | response rates to treatment (BRAF mutant melanoma; BRAFV600E melanoma patients) | tumor resistance occurs within (BRAF mutant melanoma; months of treatment) | initial response rate (BRAF mutant melanoma; mutated BRAF melanoma) | response of cell viability to BRAF inhibition [4] | response of cell viability to BRAF inhibition [5] | response of cell viability to BRAF inhibition [6] | clinical benefit, phase II clinical trials (BRAF mutant melanoma; BRAF melanoma patients not previously treated with a BRAF inhibitor) | activity in sequential therapy, phase II clinical trials (BRAF mutant melanoma; patients previously treated with BRAF inhibitors) | sensitivity of EPE-resistant cells to single agent (melanoma cell lines) | Sprouty2-mediated negative feedback loop of the ERK cascade (ERK cascade signaling) |
| --- | --- | --- | --- | --- | --- | --- | --- | --- | --- | --- | --- | --- | --- |
| CCCS(=O)(=O)Nc1ccc(F)c(C(=O)c2c[nH]c3ncc(-c4ccc(Cl)cc4)cc23)c1F [vemurafenib, reference compound] | resistant | resistant | resistant | 60-80% | 2-18 months | more than 70% | resistant | resistant | resistant |  |  |  |  |
| CC(=O)Nc1cccc(-n2c(=O)n(C3CC3)c(=O)c3c(Nc4ccc(I)cc4F)n(C)c(=O)c(C)c32)c1 [trametinib, Trametinib] |  |  |  |  |  |  |  |  |  | significant clinical benefit | minimal activity | much less sensitive | not observed |
